Assay results reported in the supplement of paper PMC4604168 (melanoma cell lines).
The list shows a part of the results. Many values rest on one well or one pass, so single values are uncertain.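 Imaging used 1,536-well plates; nuclei positive for cleaved PARP by antibody were divided by total DNA-stained nuclei to yield the apoptosis fraction. Doses for screening kept most cells viable, and cell lines differ markedly in resting and induced cleaved-PARP levels.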

Key:
Assay in all cases: cleaved PARP positive nuclei fraction relative to DMSO control; melanoma cells; higher = more apoptosis
Conditions in all cases: library dose: low library concentration; 72 h
501Mel = system: 501Mel
A101D = system: A101D
A2058 = system: A2058
C32 = system: C32
CBRC008 = system: CBRC008 (line from a melanoma biopsy)
CBRC014 = system: CBRC014 (line from a melanoma biopsy)
CBRC016 = system: CBRC016 (line from a melanoma biopsy)
CBRC017 = system: CBRC017 (line from a melanoma biopsy)
COLO792 = system: COLO792
COLO800 = system: COLO800
COLO829 = system: COLO829
G361 = system: G361
IPC-298 = system: IPC-298
IST-MEL1 = system: IST-MEL1
LB2518-MEL = system: LB2518-MEL
LOXIMVI = system: LOXIMVI

| SMILES | cleaved PARP positive nuclei fraction (501Mel) | cleaved PARP positive nuclei fraction (A101D) | cleaved PARP positive nuclei fraction (A2058) | cleaved PARP positive nuclei fraction (C32) | cleaved PARP positive nuclei fraction (CBRC008) | cleaved PARP positive nuclei fraction (CBRC014) | cleaved PARP positive nuclei fraction (CBRC016) | cleaved PARP positive nuclei fraction (CBRC017) | cleaved PARP positive nuclei fraction (COLO792) | cleaved PARP positive nuclei fraction (COLO800) | cleaved PARP positive nuclei fraction (COLO829) | cleaved PARP positive nuclei fraction (G361) | cleaved PARP positive nuclei fraction (IPC-298) | cleaved PARP positive nuclei fraction (IST-MEL1) | cleaved PARP positive nuclei fraction (LB2518-MEL) | cleaved PARP positive nuclei fraction (LOXIMVI) |
| --- | --- | --- | --- | --- | --- | --- | --- | --- | --- | --- | --- | --- | --- | --- | --- | --- |
| CNC(=O)c1cc(Oc2ccc(NC(=O)Nc3ccc(Cl)c(C(F)(F)F)c3)cc2)ccn1 [sorafenib] + Cc1cc([N+](=O)[O-])ccc1NS(=O)(=O)c1cc(Cl)ccc1Cl [FH535] (first compound 0.4 µM, partner dose 1 µM) | 63.1% | 24.2% | 17.6% | 136% | 899% | 220% | 448% | 335% | 93% | 42% | 64.3% | 152% | 167% | 200% | 62.6% | 416% |
| Cc1cc(Nc2cc(N3CCN(C)CC3)nc(/C=C/c3ccccc3)n2)n[nH]1 + COc1ccc(COc2ccc(Cc3cnc(N)nc3N)cc2OC)cc1 [GW2580] (first compound 0.04 µM, partner dose 1 µM) | 107% | 21% | 83.1% | 46% | 35.9% | 102% | 116% | 117% | 113% | 78.9% | 23.6% | 28.4% | 47.3% | 59.2% | 80.8% | 63.2% |
| CO[C@H]1C[C@@H]2CC[C@@H](C)[C@@](O)(O2)C(=O)C(=O)N2CCCC[C@H]2C(=O)O[C@H]([C@H](C)C[C@@H]2CC[C@@H](OCCO)[C@H](OC)C2)CC(=O)[C@H](C)/C=C(\C)[C@@H](O)[C@@H](OC)C(=O)[C@H](C)C[C@H](C)/C=C/C=C/C=C/1C [everolimus] + CCN(CC)CCCCNc1ncc2cc(-c3cc(OC)cc(OC)c3)c(NC(=O)NC(C)(C)C)nc2n1 [PD173074] (first compound 0.02 µM, partner dose 0.1 µM) | 111% | 1060% | 153% | 91.1% | 179% | 91.8% | 47.4% | 111% | 158% | 88.7% | 138% | 137% | 179% | 125% | 78.1% | 182% |
| Nc1ccn([C@@H]2O[C@H](CO)[C@@H](O)C2(F)F)c(=O)n1 [gemcitabine] + CC(C)CCN1c2nc(Nc3cc(F)c(O)c(F)c3)ncc2N(C)C(=O)C1C [BID1870] (first compound 0.0004 µM, partner dose 0.2 µM) | 68.9% | 32.7% | 91.1% | 37.8% | 112% | 149% | 174% | 146% | 61.7% | 128% | 46.7% | 278% | 102% | 107% | 43.3% | 152% |
| Cc1cc(Nc2cc(N3CCN(C)CC3)nc(/C=C/c3ccccc3)n2)n[nH]1 + CCCCCCCCCCCC1=C(O)C(=O)C=C(O)C1=O [Embelin] (first compound 0.04 µM, partner dose 1.2 µM) | 130% | 34.9% | 40.1% | 67.2% | 67.7% | 42.3% | 93% | 80.7% | 25% | 306% | 171% | 147% | 120% | 28.1% | 29.2% | 77% |
| Cn1c(=O)n(-c2ccc(C(C)(C)C#N)cc2)c2c3cc(-c4cnc5ccccc5c4)ccc3ncc21 + O=c1cc(-c2cccc3c2Sc2ccccc2S3)oc(N2CCOCC2)c1 [KU55933] (first compound 0.004 µM, partner dose 1 µM) | 70.3% | 53.3% | 53.1% | 113% | 47.2% | 97.5% | 32.4% | 87.4% | 113% | 36.5% | 342% | 112% | 277% | 62.7% | 36.9% | 165% |
| Nc1ncn([C@H]2C[C@H](O)[C@@H](CO)O2)c(=O)n1 [decitabine] + CC(C)CCN1c2nc(Nc3cc(F)c(O)c(F)c3)ncc2N(C)C(=O)C1C [BID1870] (first compound 0.1 µM, partner dose 0.2 µM) | 219% | 60.6% | 91.1% | 76.2% | 178% | 104% | 86.8% | 72.3% | 119% | 157% | 57.9% | 106% | 185% | 147% | 98% | 52.2% |
| Nc1nc(F)nc2c1ncn2[C@@H]1O[C@H](CO)[C@@H](O)[C@@H]1O [fludarabine] + CCN(CC)CCCCNc1ncc2cc(-c3cc(OC)cc(OC)c3)c(NC(=O)NC(C)(C)C)nc2n1 [PD173074] (first compound 0.2 µM, partner dose 0.1 µM) | 1350% | 13.8% | 112% | 122% | 40.9% | 122% | 80.6% | 219% | 32.4% | 196% | 63.4% | 103% | 51.4% | 115% | 76.8% | 108% |
| Cn1c(=O)n(-c2ccc(C(C)(C)C#N)cc2)c2c3cc(-c4cnc5ccccc5c4)ccc3ncc21 + O=C(Nc1ccccc1)c1cc([N+](=O)[O-])ccc1Cl [GW9662] (first compound 0.004 µM, partner dose 2 µM) | 121% | 28.6% | 99.1% | 20.9% | 122% | 102% | 98.2% | 101% | 109% | 97.6% | 55.4% | 113% | 153% | 41.8% | 64.1% | 42.8% |
